Test system: mouse cochlear explants
Settings: for Therapeutic index in mouse cochlear explant (LD50/IC50): Table 1
Description: Dab alone or Dab added 1 h before cisplatin (150 μM) to P3 FVB cochlear explants for 24 h.
Now referring to FIG. 9, testing of a B-Raf/MEK1/2 inhibitor combination in mouse cochlear explant cultures. Compounds alone or combination of the compounds were added 1 h before cisplatin (150 μM) to P3 FVB cochlear explants for 24 h, and number of outer hair cells per 160 μm of middle turn regions of the cochlea were counted by phalloidin staining, mean±SEM, P=*<0.05, P=***<0.001, compared to cisplatin alone by unpaired two-tailed Student's t-test.
Methods of using a zebrafish model system to evaluate small molecules capable of decreasing, inhibiting or preventing sensory hair cell damage or death are provided. Zebrafish are an advantageous animal model system for studying causes and prevention of hearing loss in comparison to mammalian animal model systems. The relative inaccessibility of hair cells in mammalian organisms limits their use as a high throughput model for identifying compounds that would prevent toxin mediated and other forms of hair cell death from occurring. The lateral line neuromast hair cells of zebrafish (Danio rerio) are structurally and functionally similar to mammalian sensory hair cells. […] Compounds alone or compounds added 1 h before cisplatin (150 μM) to P3 FVB cochlear explants for 24 h, and number of outer hair cells per 160 μm of middle turn regions of the cochlea were counted by phalloidin staining, mean±SEM, P=*<0.05, P=**<0.005, ***P<0.0005 compared to cisplatin alone by unpaired two-tailed Student's t-test.
Compounds alone (purple bar) or combination of the compounds were added 1 h before cisplatin (150 μM) to P3 FVB cochlear explants for 24 hrs, and number of outer hair cells per 160 μm of middle turn regions of the cochlea were counted by phalloidin staining, mean±SEM, P=*<0.05, P=**<0.005, compared to cisplatin alone by unpaired two-tailed Student's t-test.

SMILES	Therapeutic index in mouse cochlear explant (LD50/IC50)	Therapeutic Index in mouse cochlear explants
CC1(COc2ccc3c(c2)ncn3-c2ccc3cccc(N4CCC(N)CC4)c3n2)COC1 [Crenolanib]	>14	–
FC(F)(F)c1ccc(/C=C/c2nc(COc3ccc(CCCCn4ccnn4)cc3)co2)cc1 [Mubritinib]	>500	> 200
Cn1c(Nc2ccc(C(F)(F)F)cc2)nc2cc(Oc3ccnc(-c4ncc(C(F)(F)F)[nH]4)c3)ccc21 [RAF-265]	–	greater than 150
O=C(Nc1cccc(Cl)c1)Nc1ncc(CCNc2ncnc3ccsc23)s1 [SNS-314]	>100	–
